Assay results published in patent US6492563B2, “Fragrance precursors” (Givaudan SA, priority 2000, dated 2002).

Assay: Spray tests: release on cotton towels upon irradiation with a tanning lamp, evaluated by trained panel of perfumers
Parameters: key: 0: very weak; +: weak; ++: medium; +++: strong
Conditions: cotton towel, after irradiation with tanning lamp; for Fragrance Target (perception): ester (III) / Fragrance Target (perception): aryl ketone (II): 45-75 μg/g cotton; for Fragrance Target (perception): ester (III): released ester named in cell; for Fragrance Target (perception): aryl ketone (II): released ketone named in cell
Protocol: 1 g of an approximately 0.2% phenacyl acetal (I) solution in ethanol was evenly sprayed on a Terry towel (white cotton towel, 25 cm ×25 cm, 45 g), corresponding to 45-75 μg/g cotton. The sprayed towels were allowed to dry in a dark and odorless place. When dry, the towels were irradiated for a few seconds up to a few minutes with a tanning lamp (Osram Ultra-Vitalux®, 300 W; at a distance of 50 cm, the light has approximately six to seven times the effect of the natural sunlight at noon on a sea-side mid-summer day). The evaluation was done by a trained panel of perfumers before and after irradiation. Before irradiation, the towels were judged to be odorless.

SMILES	Fragrance Target (perception): ester (III)	Fragrance Target (perception): aryl ketone (II)	Global appreciation
CCCCCCOC(C)OCC(=O)c1cc2c(cc1C)C(C)(C)C(C)CC2(C)C (stereo not drawn) [compound 8, 1-(3,5,5,6,8,8-Hexamethyl-5,6,7,8-tetrahydro-naphthalen-2-yl)-2-(1-hexyloxy-ethoxy)-ethanone]	hexyl acetate (+++)	Fixolide ® (++)	+++
CCOC(C)OCC(=O)c1cc2c(cc1C)C(C)(C)C(C)CC2(C)C (stereo not drawn) [compound 10, 2-(1-Ethoxy-ethoxy)-1-(3,5,5,6,8,8-hexamethyl-5,6,7,8-tetrahydro-naphthalen-2-yl)-ethanone]	ethyl acetate (0)	Fixolide ® (++)	++
CCCCCCOC(C)OCC(=O)c1ccc2ccccc2c1 (stereo not drawn) [compound 11, 2-(1-Hexyloxy-ethoxy)-1-naphthalen-2-yl-ethanone]	hexyl acetate (++)	Oranger Crystals ® (++)	++
CC(OCC(=O)c1ccc2ccccc2c1)OC1CCC(C(C)(C)C)CC1 (stereo not drawn) [compound 14, 2-[1-(4-t-Butyl-cyclohexyloxy)-ethoxy]-1-naphtalen-2-yl-ethanone]	t-butyl-cyclohexyl acetate (+)	Oranger Crystals ® (++)	+
COc1ccc(C(=O)COC(C)OCCC(C)CCC=C(C)C)cc1 (stereo not drawn) [compound 7, 2-[1-(3,7-Dimethyl-oct-6-enyloxy)-ethoxy]-1-(4-methoxy-phenyl)-ethanone]	citronellyl acetate (+)	acetanisole (++)	++
CCCCCCOC(C)OCC(=O)c1ccc(OC)cc1 (stereo not drawn) [compound 5, 2-(1-Hexyloxy-ethoxy)-1-(4-methoxy-phenyl)-ethanone]	hexyl acetate (++)	acetanisole (++)	++
COc1ccc(C(=O)COC(C)OCCCc2ccccc2)cc1 (stereo not drawn) [compound 6, 1-(4-Methoxy-phenyl)-2-[1-(3-phenyl-propoxy)-ethoxy]-ethanone]	phenylpropyl acetate (++)	acetanisole (++)	++
COc1ccc(C(=O)COC(C)OCCc2ccccc2)cc1 (stereo not drawn) [compound 2, 1-(4-Methoxy-phenyl)-2-(1-phenethyloxy-ethoxy)-ethanone]	phenethyl acetate (+++)	acetanisole (++)	+++
COc1ccc(C(=O)COC(Cc2ccccc2)OC)cc1 (stereo not drawn) [compound 15, 1-(4-Methoxy-phenyl)-2-(1-methoxy-2-phenyl-ethoxy)-ethanone]	methyl phenyl acetate (+)	acetanisole (++)	+
CC/C=C\CCOC(C)OCC(=O)c1cc2c(cc1C)C(C)(C)C(C)CC2(C)C (stereo not drawn) [compound 9, 1-(3,5,5,6,8,8-Hexamethyl-5,6,7,8-tetrahydro-naphthalen-2-yl)-2-(1-hex-3(Z)-enyloxy-ethoxy)-ethanone]	cis-3-hexenyl acetate (+++)	Fixolide ® (++)	+++
CC/C=C\CCOC(C)OCC(=O)c1ccc(OC)cc1 (stereo not drawn) [compound 3, 2-(1-Hex-3(Z)-enyloxy-ethoxy)-1-(4-methoxy-phenyl)-ethanone]	cis-3-hexenyl acetate (++)	acetanisole (++)	++
CCOC(C)OCC(=O)c1ccc(OC)cc1 (stereo not drawn) [compound 1, 2-(1-Ethoxy-ethoxy)-1-(4-methoxy-phenyl)-ethanone]	ethyl acetate (0)	acetanisole (++)	+
COc1ccc(C(=O)COC(C)OCCC(C)CC(C)(C)C)cc1 (stereo not drawn) [compound 4, 1-(4-Methoxy-phenyl)-2-[1-(3,5,5-trimethyl-hexyloxy)-ethoxyl]-ethanone]	nonanyl acetate (+)	acetanisole (++)	+
CCC(C)(CCCC(C)C)OC(C)OCC(=O)c1ccc2ccccc2c1 (stereo not drawn) [compound 13, 2-[1-(1-Ethyl-1,5-dimethyl-hexyloxy)-ethoxy]-1-naphtalen-2-yl-ethanone]	tetrahydro linalyl acetate (++)	Oranger Crystals ® (++)	+++
CC(C)=CCCC(C)CCOC(C)OCC(=O)c1ccc2ccccc2c1 (stereo not drawn) [compound 12, 2-[1-(3,7-Dimethyl-oct-6-enyloxy)-ethoxy-]1-naphthalen-2-yl-ethanone]	citronellyl acetate (+)	Oranger Crystals ® (++)	++
